From publication PMC4186791
No constants are given. Whether binding was seen depends on the method and setting. Some binding calls cover weakened binding; strength is not graded here.

The chains behind the UniProt entries cited, without tags or fusion partners. Where a name states a change or a piece, a line headed by the entry shows the natural chain unless it says otherwise. A line that says so, or that is headed by a name, gives the form on record, which may keep a tag or linker.
UniProt P83949: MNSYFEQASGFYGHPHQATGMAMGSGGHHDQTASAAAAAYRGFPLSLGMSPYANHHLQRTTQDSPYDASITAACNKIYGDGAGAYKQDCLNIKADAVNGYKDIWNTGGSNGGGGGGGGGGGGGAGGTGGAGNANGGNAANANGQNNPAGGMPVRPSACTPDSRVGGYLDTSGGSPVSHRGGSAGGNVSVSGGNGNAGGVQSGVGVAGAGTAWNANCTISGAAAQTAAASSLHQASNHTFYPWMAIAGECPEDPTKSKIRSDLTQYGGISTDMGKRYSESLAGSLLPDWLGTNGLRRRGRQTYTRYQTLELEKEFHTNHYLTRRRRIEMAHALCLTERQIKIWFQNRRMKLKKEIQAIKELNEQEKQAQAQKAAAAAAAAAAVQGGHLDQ
UbxIb Pro4 (P83949, form named): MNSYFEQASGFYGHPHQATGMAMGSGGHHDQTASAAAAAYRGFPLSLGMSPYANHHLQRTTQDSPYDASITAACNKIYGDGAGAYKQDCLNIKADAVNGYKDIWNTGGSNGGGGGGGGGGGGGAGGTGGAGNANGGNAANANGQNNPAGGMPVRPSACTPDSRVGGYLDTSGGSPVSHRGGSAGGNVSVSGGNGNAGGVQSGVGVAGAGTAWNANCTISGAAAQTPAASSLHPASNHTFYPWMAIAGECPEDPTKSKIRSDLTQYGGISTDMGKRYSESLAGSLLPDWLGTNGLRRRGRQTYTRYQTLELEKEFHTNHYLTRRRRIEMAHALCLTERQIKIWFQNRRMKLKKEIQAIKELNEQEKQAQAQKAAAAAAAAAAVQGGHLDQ
UbxIb N103 Pro4 (P83949, form named): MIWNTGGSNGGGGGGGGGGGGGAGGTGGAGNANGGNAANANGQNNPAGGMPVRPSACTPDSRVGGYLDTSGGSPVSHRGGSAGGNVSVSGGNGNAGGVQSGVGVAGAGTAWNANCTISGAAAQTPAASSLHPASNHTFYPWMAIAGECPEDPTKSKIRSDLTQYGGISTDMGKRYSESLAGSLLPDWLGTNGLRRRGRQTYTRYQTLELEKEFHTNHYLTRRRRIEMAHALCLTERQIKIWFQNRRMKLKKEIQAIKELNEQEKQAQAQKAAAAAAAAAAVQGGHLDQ
UbxIb Δ103–216 (P83949, form named): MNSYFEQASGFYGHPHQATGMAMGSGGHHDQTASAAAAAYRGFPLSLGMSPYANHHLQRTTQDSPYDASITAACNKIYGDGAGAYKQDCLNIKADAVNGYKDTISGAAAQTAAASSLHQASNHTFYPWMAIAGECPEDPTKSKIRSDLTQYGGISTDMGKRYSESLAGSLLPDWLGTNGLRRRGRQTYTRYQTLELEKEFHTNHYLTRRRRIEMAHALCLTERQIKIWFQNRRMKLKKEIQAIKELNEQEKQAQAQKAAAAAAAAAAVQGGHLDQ
UniProt Q06453: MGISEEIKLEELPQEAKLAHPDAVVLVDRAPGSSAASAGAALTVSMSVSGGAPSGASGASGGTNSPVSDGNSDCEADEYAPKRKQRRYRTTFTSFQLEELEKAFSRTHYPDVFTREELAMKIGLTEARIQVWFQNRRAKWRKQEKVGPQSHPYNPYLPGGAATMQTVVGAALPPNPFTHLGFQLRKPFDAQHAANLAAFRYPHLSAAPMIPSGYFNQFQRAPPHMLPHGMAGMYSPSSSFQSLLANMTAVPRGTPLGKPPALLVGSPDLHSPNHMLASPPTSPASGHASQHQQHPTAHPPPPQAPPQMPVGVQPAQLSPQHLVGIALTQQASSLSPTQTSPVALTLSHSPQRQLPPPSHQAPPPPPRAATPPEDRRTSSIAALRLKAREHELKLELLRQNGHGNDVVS
UniProt P50887: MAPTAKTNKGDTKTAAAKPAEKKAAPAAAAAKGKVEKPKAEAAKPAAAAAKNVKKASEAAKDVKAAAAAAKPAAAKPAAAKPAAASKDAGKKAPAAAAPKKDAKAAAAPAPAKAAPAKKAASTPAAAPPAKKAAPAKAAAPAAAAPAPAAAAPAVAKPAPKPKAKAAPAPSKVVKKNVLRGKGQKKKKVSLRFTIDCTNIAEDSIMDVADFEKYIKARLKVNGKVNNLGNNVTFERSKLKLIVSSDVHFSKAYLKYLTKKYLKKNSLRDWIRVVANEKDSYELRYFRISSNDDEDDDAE
UniProt P51140: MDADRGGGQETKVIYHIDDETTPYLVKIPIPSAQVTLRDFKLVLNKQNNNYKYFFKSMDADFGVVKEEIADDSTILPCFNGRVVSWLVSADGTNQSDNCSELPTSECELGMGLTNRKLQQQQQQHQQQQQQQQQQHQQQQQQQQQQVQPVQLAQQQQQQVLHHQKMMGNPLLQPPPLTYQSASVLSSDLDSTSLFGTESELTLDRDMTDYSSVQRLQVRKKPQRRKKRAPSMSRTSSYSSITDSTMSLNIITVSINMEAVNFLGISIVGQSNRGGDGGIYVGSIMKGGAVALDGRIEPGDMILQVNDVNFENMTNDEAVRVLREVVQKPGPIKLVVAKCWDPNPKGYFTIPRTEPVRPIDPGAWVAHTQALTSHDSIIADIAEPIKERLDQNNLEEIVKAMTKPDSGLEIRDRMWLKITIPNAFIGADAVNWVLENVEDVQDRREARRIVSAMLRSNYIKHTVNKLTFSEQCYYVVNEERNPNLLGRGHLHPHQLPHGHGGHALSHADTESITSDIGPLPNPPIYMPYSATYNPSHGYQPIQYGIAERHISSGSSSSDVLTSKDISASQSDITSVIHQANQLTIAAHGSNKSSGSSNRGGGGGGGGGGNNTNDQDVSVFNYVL
UniProt P92177: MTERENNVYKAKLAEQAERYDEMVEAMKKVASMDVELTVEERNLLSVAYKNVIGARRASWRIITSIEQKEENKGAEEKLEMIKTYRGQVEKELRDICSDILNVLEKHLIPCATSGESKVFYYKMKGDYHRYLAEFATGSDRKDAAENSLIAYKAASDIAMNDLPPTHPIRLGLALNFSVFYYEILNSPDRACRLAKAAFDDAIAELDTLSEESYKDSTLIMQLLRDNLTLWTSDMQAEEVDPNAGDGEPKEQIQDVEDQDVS

How the values were obtained:
Assay in all cases: two-hybrid; LexA-Ubx variant (pLexA) and B42-partner (pB42) co-transformed into S. cerevisiae EGY48 carrying p8op-LacZ; blue/white colonies on X-gal and liquid β-galactosidase (ONPG) assay after galactose induction at 30°C, reported in Miller units
[1] = biological target: UbxIb Pro4 (Drosophila melanogaster) (UniProt P83949)
[2] = biological target: UbxIb N103 Pro4 (Drosophila melanogaster) (UniProt P83949)
[3] = biological target: UbxIb Δ103–216 (Drosophila melanogaster) (UniProt P83949)

Substance | binding [1] | binding [2] | binding [3]
DNA/RNA binding 3-helical bundle domain from Al (amino acids 81–142) (from UniProt Q06453 81-142) (domain or fragment) | binds |  | 
Aristaless (from UniProt Q06453 1-408) | binds | binds | binds
Ribosomal protein L22 (from UniProt P50887 1-299) | binds |  | 

Results, then the substance that gave them:

binding [1] | binding [2] | binding [3] | Substance
binds |  |  | Dishevelled (from UniProt P51140 1-623)
binds |  |  | 14-3-3ε (from UniProt P92177 1-262)
